In patent US7272508B2, “Small molecule mimetics of erythropoietin” (The Scripps Research Institute, priority 1996, dated 2007):
No constants are given. Whether binding was seen depends on the method and setting. Some results given as binding are weak or reduced against the parent protein; the word gives no strength.

T1: EPO receptor (as used in receptor binding assays and on EPO responsive cells) (UniProt P19235)
T1 sequence (looked up): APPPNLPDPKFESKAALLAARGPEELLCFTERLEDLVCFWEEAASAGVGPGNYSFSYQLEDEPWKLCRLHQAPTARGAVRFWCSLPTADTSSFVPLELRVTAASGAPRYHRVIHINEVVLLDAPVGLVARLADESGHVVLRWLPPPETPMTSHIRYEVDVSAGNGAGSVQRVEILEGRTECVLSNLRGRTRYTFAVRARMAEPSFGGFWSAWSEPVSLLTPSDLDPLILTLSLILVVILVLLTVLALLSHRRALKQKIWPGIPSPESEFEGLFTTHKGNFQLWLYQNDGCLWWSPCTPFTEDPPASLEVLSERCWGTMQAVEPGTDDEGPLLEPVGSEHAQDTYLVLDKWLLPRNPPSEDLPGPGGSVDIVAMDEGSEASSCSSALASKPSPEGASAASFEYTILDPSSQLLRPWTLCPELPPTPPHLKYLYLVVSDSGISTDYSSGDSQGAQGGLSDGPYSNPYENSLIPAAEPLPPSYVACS

T2: EPO binding protein (EBP), extracellular fragment of human EPO receptor, residues 1-225 (human) (UniProt P19235)
T2 sequence (looked up): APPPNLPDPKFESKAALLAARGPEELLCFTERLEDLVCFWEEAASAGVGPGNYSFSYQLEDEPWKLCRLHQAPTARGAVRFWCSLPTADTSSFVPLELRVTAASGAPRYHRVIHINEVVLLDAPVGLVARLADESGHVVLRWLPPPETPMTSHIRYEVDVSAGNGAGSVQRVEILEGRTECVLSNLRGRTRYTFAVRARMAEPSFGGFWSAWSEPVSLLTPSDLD


Key:
[1] = target: T1, EPO receptor (as used in receptor binding assays and on EPO responsive cells); assay: receptor binding assay, competition with EPO
[2] = target: T2, EPO binding protein (EBP), extracellular fragment of human EPO receptor, residues 1-225 (human); assay: co-crystal, difference Fourier

Row | Binder | binding [1] | binding [2]
1 | GGTYSCHFGPLTWVCKPQGG (intramolecular disulfide bridge between Cys P6 and Cys P15 (cyclic)) [EMP1 (EPO Mimetic Peptide 1)] | binds | –
2 | GGTFSCHFGPLTWVCKPQGG (p-iodo-Phe at position P4 in place of Tyr) [iodinated peptide (EMP1 with Tyr P4 substituted for p-iodo-Phe)] | – | binds
